# Source: US6890716B1, “Recombinant cell line and screening method for identifying agents which regulate apoptosis and tumor suppression” (Howard Hughes Medical Institute, priority 1998, dated 2005)
# Some of these results come from one statement about several compounds together.
# System: p53A cells
# Assay: Cell viability by trypan blue staining after transient transfection
# Assay type: cell-based, rat
# Conditions: permissive temperature, 48 hours post-transfection (FIG. 8)
row,Substance,cell viability elevated above mock transfected cells
1,mutant p300: Functional but truncated p300 with deletion of the E1A binding domain (pCMVβp300Δ30),20-40%
2,"wild-type p300: Transcriptional coactivator p300, HA-tagged, expressed from pCMVβp300",20-40%
